# PubChem BioAssay AID504467 (National Center for Advancing Translational Sciences (NCATS), 2011)
# About 7,700 (2.3%) of roughly 330,000 compounds were called active. The shares of active, inactive and inconclusive entries below differ from those in the screen. The call rests on the fitted dose curve; in most records, active means well fitted inhibition curve with a large enough effect; inconclusive means small, poorly fitted or top-dose-only effect, or effect the other way; inactive means flat fitted curve, though single readings scatter. Potencies beside an inconclusive call are fits to weak or partial responses and may not hold up.
# Assay: qHTS screen for small molecules that inhibit ELG1-dependent DNA repair in human embryonic kidney (HEK293T) cells expressing luciferase-tagged ELG1; further: nearly all actives have a fitted effect of over 55% in size
# Details: HEK293T ELG1-luciferase reporter, luminescence, 16 h, DNA damage induced by 5-fluorouridine; activity change, negative = inhibition: at 46.1 µM (top of the series)
# Method in brief: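 Cells (2,000 per well) received 5-fluorouridine plus test compound or DMSO and were incubated 16 hr at 37 °C, 5% CO2. Luciferase activity was read by luminescence 30 min after ONE-Glo addition; signal suppression marked inhibition of damage-induced ELG1 function.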
# On the % scale 0 is the no-effect control and ±100 the full control effect; potency means the concentration at half of the fitted maximal effect.
SMILES,"activity change, negative = inhibition",Potency
CCOC(=O)c1ccc(-n2c(=S)sc3c(=O)[nH]c(C)nc32)cc1,inactive: -26.7%,–
CC1=NN(c2cccc(C(=O)O)c2)C(=O)/C1=C\C=C/c1ccccc1,–,"inconclusive: 14.6 µM [activator, partial curve]"
Cn1ccnc1C1CCCCN1Cc1nc(-c2ccc(Cl)cc2)no1 (stereo unspecified),inactive: -8.94%,–
O=C(N/N=C/c1cc([N+](=O)[O-])ccc1O)C1C2CCCCC21 (stereo unspecified),–,"inconclusive: 9.2 µM [inhibitor, partial curve]"
COc1cc2c(cc1OC)CN(C(=O)c1cccc(S(=O)(=O)N3CCc4ccccc43)c1)CC2,–,"inconclusive: 25.1 µM [inhibitor, single point]"
CC(C)CCN(C(=O)c1cc(=O)[nH]c2ccccc12)c1c(N)n(Cc2ccccc2)c(=O)[nH]c1=O,inactive: 0%,–
Cc1nc(NC(=O)c2ccco2)sc1-c1csc(Nc2ccc(Cl)cc2Cl)n1,–,active: 13 µM
CC(C)C(C)NC(=O)COc1ccc(OCc2ccccc2)cc1 (stereo unspecified),inactive: -2.88%,–
CN(C)CCN=Cc1c(O)n(Cc2ccc3c(c2)OCO3)c(=O)c2ccccc12,inactive: -0.865%,–
COCCNC(=S)NCc1cccs1,inactive: 7.09%,–
COC(=O)CSc1nc2cc3c(cc2cc1C)OCO3,–,"inconclusive: 20.6 µM [activator, single point]"
Cc1cc(NC(=O)CN(C)S(=O)(=O)c2ccc(-c3ccc(=O)[nH]n3)s2)ccc1Br,inactive: 24%,–
O=C(Nc1ccc(N2CCCCC2)cc1)c1ccc2c(c1)OCCO2,–,"inconclusive: 2.31 µM [activator, partial curve]"
Cc1ccc(S(=O)(=O)c2c(C)nn(C(C)(C)C)c2OC(=O)c2ccc(Br)o2)cc1,inactive: -23.9%,–
CCOC(=O)c1c(NC(=O)CCc2ccc(CC)o2)sc(C)c1C,–,"inconclusive: 29.1 µM [activator, single point]"
CC(=O)C(N=Nc1ccccc1)(Sc1nnc(-c2ccccc2)n1-c1ccccc1)C(=O)Nc1ccccc1 (stereo unspecified),inactive: -3.93%,–
CC(C)C(=O)N1CCN(c2ccc([N+](=O)[O-])c(NC(C)c3ccccc3)c2)CC1 (stereo unspecified),–,"inconclusive: 32.6 µM [inhibitor, single point]"
COc1ccc(CCNC(=O)c2ccn[nH]2)cc1OC,–,"inconclusive: 5.8 µM [activator, partial curve, poor fit]"
N/C(=N\OC(=O)c1cc(Cl)ccc1Cl)c1ccccn1,–,"inconclusive: 1.03 µM [activator, partial curve]"
Cc1cc(C(=O)COC(=O)c2n[nH]c(=O)c3ccccc23)c(C)n1C,–,"inconclusive: 16.4 µM [activator, partial curve]"
Cc1cc(N2CCOCC2)nc2ccc(NC(=S)NCc3ccc4c(c3)OCO4)cc12,–,"inconclusive: 23.1 µM [inhibitor, single point]"
O=C(COC(=O)/C=C/c1ccc(Cl)cc1)NC(=O)NCc1ccccc1,–,"inconclusive: 29.1 µM [activator, single point]"

# Full records as entered above. Order of values: activity change, negative = inhibition | Potency
# CC(C)C(C)NC(=O)COc1ccc(OCc2ccccc2)cc1 (stereo unspecified) as listed: inactive: -2.88% | –
# Cc1ccc(S(=O)(=O)c2c(C)nn(C(C)(C)C)c2OC(=O)c2ccc(Br)o2)cc1 as listed: inactive: -23.9% | –
# COCCNC(=S)NCc1cccs1 as listed: inactive: 7.09% | –

# (listing goes on)

SMILES,"activity change, negative = inhibition",Potency
CC(C)(C)c1ccc(/C=N/Nc2ccc(C(=O)O)cc2)cc1,–,"inconclusive: 0.0517 µM [activator, full curve, poor fit]"
Cn1ccnc1SCc1cn2ccccc2n1,–,"inconclusive: 12.6 µM [activator, partial curve]"
Cc1nc(Cl)sc1C(=O)O,–,"inconclusive: 16.4 µM [activator, partial curve, poor fit]"
CCCOc1ccc2cc(-c3ccccn3)c(=O)oc2c1,–,"inconclusive: 0.411 µM [activator, full curve]"
CC(=O)Nc1ccc(S(=O)(=O)N(C)CC(=O)OCC(=O)N(C)c2ccccc2)cc1,inactive: 9.66%,–
O=C(Nc1nc(-c2ccc3c(c2)OCCO3)cs1)c1ccc(S(=O)(=O)N2CCCCC2)cc1,–,active: 4.11 µM
COc1cccc(C(=O)NN/C(C)=C/C(=O)C(F)(F)C(F)(F)C(F)(F)F)c1,–,"inconclusive: 0.146 µM [inhibitor, partial curve, poor fit]"
CCN(CC(=O)Nc1cccc(S(=O)(=O)N2CCCC2)c1)CC(=O)Nc1ccccc1OC,–,"inconclusive: 23.1 µM [inhibitor, single point]"
O=C(N/N=C/c1ccccn1)c1ccc(Cl)c(Cl)c1,–,"inconclusive: 6.51 µM [activator, partial curve]"
COC(=O)[C@]1(C)CCC[C@@]2(C)C3CC[C@@]4(C)C[C@]3(CCC21)CC4=NO (stereo partly specified),–,"inconclusive: 16.4 µM [inhibitor, single point]"
COCCn1c(C)cc(/C=C(\C#N)C(=O)OCC(=O)N(C)c2c(N)n(Cc3ccccc3)c(=O)[nH]c2=O)c1C,–,"inconclusive: 18.3 µM [activator, partial curve, poor fit]"
CC(Sc1nnc(C(F)(F)F)n1C)C(=O)Nc1ccc(N2CCOCC2)cc1 (stereo unspecified),–,"inconclusive: 16.4 µM [activator, partial curve, poor fit]"
Cc1ccc(C(=O)c2cc([N+](=O)[O-])ccc2N2CCOCC2)cc1C,–,"inconclusive: 1.3 µM [inhibitor, partial curve, poor fit]"
Cc1cc(C)c(S(=O)(=O)NCC2CCC(C(=O)NCc3ccccn3)CC2)c(C)c1 (stereo unspecified),inactive: -8.63%,–
CCCn1nnnc1NC(=O)COc1ccc(Cl)c(C)c1,inactive: 8.51%,–
Cc1cc(F)ccc1S(=O)(=O)N1CCC2(CC1)OCCN2S(=O)(=O)c1cccs1,–,"inconclusive: 3.26 µM [inhibitor, partial curve, poor fit]"
O=C(O)C1C2C=CC(O2)C1C(=O)NCc1ccc(Cl)cc1 (stereo unspecified),–,"inconclusive: 16.4 µM [activator, single point]"
CC(=O)NC1=NN(C(C)=O)C(c2ccc(F)cc2)S1 (stereo unspecified),–,"inconclusive: 20.6 µM [activator, partial curve, poor fit]"
COc1ccc(CNC(=O)CCn2c(C)csc2=O)cc1,–,"inconclusive: 16.4 µM [activator, partial curve, poor fit]"
Cc1cc(N2C(=O)C(=O)/C(=C(/O)c3ccc(F)cc3)C2c2ccc(F)cc2)no1 (stereo unspecified),–,"inconclusive: 29.1 µM [inhibitor, single point]"
Cc1ccc(NC(=O)Cc2ncon2)cc1Cl,–,"inconclusive: 20.6 µM [activator, single point]"
COC(=O)c1ccc(NC(=S)N2CCN(Cc3ccc(Cl)cc3)CC2)cc1,–,"inconclusive: 20.6 µM [inhibitor, partial curve, poor fit]"

SMILES,"activity change, negative = inhibition",Potency
Cc1ccc(C(=O)N/C(=C\c2ccco2)C(=O)N2CCCCC2)cc1,inactive: 4.28%,–
COCCN=C1Sc2nc3cc4c(cc3cc2CN1CC1CCCO1)OCO4 (stereo unspecified),inactive: -4.39%,–
Cc1ccc(/C(N)=N/OC(=O)CCc2ccccc2)cc1,–,"inconclusive: 18.4 µM [activator, single point]"
COc1cc2ccccc2cc1C(=O)Nc1ccc(NC(=O)c2cccs2)cc1,–,"inconclusive: 11.6 µM [inhibitor, partial curve]"
O=c1c2ccccc2nnn1CSc1ccc2ccccc2n1,–,"inconclusive: 29.1 µM [activator, single point]"
O=C1CNC(=S)N1c1nc(-c2ccccc2)cs1,–,"inconclusive: 9.2 µM [activator, partial curve]"
C[C@H](NC(=O)CCCOc1ccc(Cl)cc1Cl)c1nnc2ccccn12,–,"inconclusive: 20.6 µM [activator, partial curve, poor fit]"
N#CC(=C=[N-])c1nc2ccccc2nc1-[n+]1cccc(NC(=O)c2ccc(F)cc2)c1,inactive: 7.19%,–
O=C(Nc1ccc2c(c1)OCO2)c1c[nH]c(=O)n(-c2ccc(F)cc2)c1=O,inactive: 17.6%,–
O=C1OC[C@H]2CCCN2C(=O)[C@@H](CC(=O)N(CCO)Cc2ccccc2)C/C=C\CC[C@H]1Cc1ccc(F)cc1,–,"inconclusive: 23.1 µM [inhibitor, single point]"
CCn1c(-c2cc3c(C(F)(F)F)nn(C)c3s2)n[nH]c1=S,inactive: 8.02%,–
Cc1ccc(NC(=O)c2ccccc2OCC(=O)Nc2cccc(Cl)c2C)nc1,–,"inconclusive: 10.3 µM [inhibitor, partial curve]"
O=C(Nc1ccc(F)cc1)c1cc(S(=O)(=O)N2CCCCC2)ccc1F,–,"inconclusive: 7.3 µM [inhibitor, partial curve, poor fit]"
CCC(=O)NC(/C=C/c1ccccc1)c1cc([N+](=O)[O-])c2cccnc2c1O (stereo unspecified),inactive: -19.5%,–
O=C(CN1CCN(c2ccccn2)CC1)Nc1ccc(OCc2ccccc2)cc1,–,"inconclusive: 20.6 µM [inhibitor, single point]"
O=C(NC1CCS(=O)(=O)C1)/C(=C/c1ccco1)NC(=O)c1ccccc1 (stereo unspecified),–,"inconclusive: 6.51 µM [inhibitor, single point]"
Cc1ccccc1OS(=O)(=O)c1cn(C)c(=O)n(C)c1=O,inactive: 13.6%,–
O=C(CNC(=S)N(Cc1ccccc1)Cc1ccccc1F)NCCc1ccc(Cl)cc1,–,"inconclusive: 18.3 µM [inhibitor, single point]"
CCOC(=O)c1c(CC(C)C)csc1NC(=O)COC(=O)c1ccc(O)cc1,inactive: -27%,–
CC(=O)Nc1ccc(S(=O)(=O)N2CCC(C(=O)N[C@@H](C)C(=O)NC3CCCC3)CC2)cc1,–,"inconclusive: 23.1 µM [activator, partial curve, poor fit]"
CS(=O)(=O)N(CC(=O)Nc1ccccc1Sc1ccccc1)C1CCCCC1,–,"inconclusive: 23.1 µM [inhibitor, partial curve, poor fit]"
O=S(=O)(c1ccc2c(c1)C(=NO)c1cc(S(=O)(=O)N3CCCCC3)ccc1-2)N1CCCCC1,–,"inconclusive: 6.51 µM [inhibitor, single point]"
